Some results were stated once for a whole list of compounds, not compound by compound.
Test system: hTERT peptide-specific CD8+ T cells
Experiment: pTRIP-CMV-ΔhTERT immunization of HLA-A2 transgenic mice, ex vivo IFN-γ ELISPOT
Assay type: in vivo, HLA-A2 transgenic (Tg) mice
Conditions: single injection of recombinant pTRIP-CMV-ΔhTERT; FIG. 8

Sequences of proteins named here, by UniProt entry; tags and fusion partners are left off. A change or cut given only in a name is not applied to a line headed by its entry.
UniProt O14746: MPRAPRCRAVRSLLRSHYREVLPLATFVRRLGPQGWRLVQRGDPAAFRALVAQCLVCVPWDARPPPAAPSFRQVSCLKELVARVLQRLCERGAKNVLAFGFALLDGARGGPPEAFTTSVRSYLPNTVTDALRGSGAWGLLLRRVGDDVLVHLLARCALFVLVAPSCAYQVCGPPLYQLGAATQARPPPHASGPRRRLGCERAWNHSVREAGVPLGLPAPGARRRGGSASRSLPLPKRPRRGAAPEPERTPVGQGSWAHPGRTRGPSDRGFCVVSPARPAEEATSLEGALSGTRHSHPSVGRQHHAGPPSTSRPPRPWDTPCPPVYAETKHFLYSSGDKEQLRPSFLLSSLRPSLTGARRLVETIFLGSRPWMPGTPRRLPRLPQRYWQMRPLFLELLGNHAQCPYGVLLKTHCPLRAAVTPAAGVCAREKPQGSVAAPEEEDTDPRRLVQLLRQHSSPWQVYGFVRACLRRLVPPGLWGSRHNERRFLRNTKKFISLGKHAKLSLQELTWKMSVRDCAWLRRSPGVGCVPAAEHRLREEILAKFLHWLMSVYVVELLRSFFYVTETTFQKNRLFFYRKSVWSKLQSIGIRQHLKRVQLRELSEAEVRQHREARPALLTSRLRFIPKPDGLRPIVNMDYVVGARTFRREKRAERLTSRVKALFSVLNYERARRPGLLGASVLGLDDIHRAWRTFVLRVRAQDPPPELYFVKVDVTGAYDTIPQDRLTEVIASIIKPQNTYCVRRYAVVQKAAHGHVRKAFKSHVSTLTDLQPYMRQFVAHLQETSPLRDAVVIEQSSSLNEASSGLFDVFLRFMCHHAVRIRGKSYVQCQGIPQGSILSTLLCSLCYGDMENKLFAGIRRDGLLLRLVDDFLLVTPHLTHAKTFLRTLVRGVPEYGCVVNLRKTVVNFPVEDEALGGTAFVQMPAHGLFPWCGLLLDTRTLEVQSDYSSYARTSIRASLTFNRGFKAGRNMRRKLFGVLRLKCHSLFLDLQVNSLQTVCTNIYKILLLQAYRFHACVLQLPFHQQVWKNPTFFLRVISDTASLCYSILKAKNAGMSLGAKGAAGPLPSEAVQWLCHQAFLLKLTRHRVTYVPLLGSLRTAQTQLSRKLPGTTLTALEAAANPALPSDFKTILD

p540: HLA-A2.1-restricted hTERT-derived peptide, epitope previously classified as dominant (ILAKFLHWL; UniProt O14746 540-548, looked up, fragment)
immunized mice with epitope-specific CD8+ T cells induced: ≥ 50 % of immunized mice
